Results as given in paper PMC4525203.

B1: Zinc-finger protein 687 (protein, UniProt Q9D2D7 1-1237)
chain: MGDMKTPDFDDLLAAFDIPDIDANEAIHSGPEENEGPGGQGKPEPSVGGDSKDREEAAAAENDPESPAEASDHGLPQPPDTSTVSVIVKNTVCPEQSESLTGDSGEEETKAGGITKEGPVGSCLMQNGFGGPEPSLSENPHSSAHASGNAWKDKAVEGKTCLDLFAHFGSEPGDHPDPLPPEPSQPRGGDMAPPPFSTPFELAPENGSTLLPPASLLPQGALKQESCSPHHSQGLTQRGPGSSPETAGIPASVSPPQVAGVSFKQSPGHQSPPASPVKAPSCKPLKEEDEGTVDKSPPRSPQSPSSGAEAADEDSNDSPTSSSSSRPLKVRIKTIKTSCGNITRTVTRVPSEPDPPAPLAEGAFLAETSFLKLSPVTPTPEGPKVVSVQLGDGTRLKGTVLPVATIQNASTAMLMAASVARKAVVLPGGNATSPKTMTKSVLGLVPQTLPKAEVRTGFSLGGQKVNGASVVMVQPSKSATGPGTAGGSVISRTQSSLVEAFNKILNSKNLLPAYRPNLSPPAEAGLALPPTGYRCLECGDAFSLEKSLARHYDRRSMRIEVTCNHCARRLVFFNKCSLLLHAREHKDKGLVMQCSHLVMRPVALDQMVGQPDITPLLPVAVPPVPGPLALPVLGKGEGAVTSSTITTVATEAPVLPLPTEPPAPPTASVYTCFRCLECKEQCRDKAGMAAHFQQLGPPALGSTSNVCPSCPMMLPNRCSFSAHQRTHKNRAPHVCPECGGNFLQANFQTHLREACLHFSRRVGYRCPSCAVVFGGVNSIKSHIQASHCEVFHKCPICPMAFKSAPSAHAHLYSQHPSFLTQQAKLIYKCAMCDTVFTHKPLLSSHFDQHLLPQRVSVFKCPSCPLLFAQKRTMLEHLKNTHQSGRVGEEAVGKGAGGALLTPKTEPEELAVSQAEAAPATEESSSSSEEELPSSPEPPRPTKRARRGELGNKGIKGGGGGPGGWTCGLCHSWCPERDEYVTHMKKEHGKSVKKFPCRLCERSFCSAPSLRRHVRVNHEGIKRVYPCRYCTEGKRTFSSRLILEKHVQVRHGLPLGTQSSGRGGSLARGSGGRAQGPGRKRRQSSDSCSEEPDSTTPPAKSLRGGPGSGGHGPLRYRSSGSAEQSLVGLRVDGGTQQCLDCGLCFASPGSLSRHRFISHKKRRAGGKASVLGLGDGEEAAPPLRSDPEGGDSPLPAPGDPLTCKVCGKSCDSPLNLKTHFRTHGMAFIRARQGGSGDN
B2: Transcription factor jun-B (protein, UniProt P09450 1-344)
chain: MCTKMEQPFYHDDSYAAAGYGRSPGSLSLHDYKLLKPTLALNLADPYRGLKGPGARGPGPEGSGAGSYFSGQGSDTGASLKLASTELERLIVPNSNGVITTTPTPPGQYFYPRGGGSGGGTGGGVTEEQEGFADGFVKALDDLHKMNHVTPPNVSLGASGGPQAGPGGVYAGPEPPPVYTNLSSYSPASAPSGGSGTAVGTGSSYPTATISYLPHAPPFAGGHPAQLGLSRGASAFKEEPQTVPEARSRDATPPVSPINMEDQERIKVERKRLRNRLAATKCRKRKLERIARLEDKVKTLKAENAGLSSAAGLLREQVAQLKQKVMTHVSNGCQLLLGVKGHAF
B3: Undifferentiated embryonic cell transcription factor 1 (protein, UniProt Q6J1H4 1-339)
chain: MLLRPRRLPAFSPPSPASPDAELRSAGDVPVTTSDAFATSGGMAEPGSPKAPVSPDSAQRTPWSARETELLLGTLLQPAMWRSLLLDRRQTLPTYRRVSAALARQQVRRTPAQCRRRYKFLKDKLRDSQGQPSGPFDNQIRQLMGLLGDDGPPRVRRRSTGPGRPQRRGRSSLSALAPAPAPVEQEAELPLAAENDEPAPALRFSSSTTKSAGAHRITSSPPLTSTDTLPPEPGHTFESSPTPTPDHDVETPNEPPGLSQGRASSPQVAPQSLNTALLQTLTHLGDISTVLGPLRDQLSTLNQHVEHLRGSFDQTVSLAVGFILGSAASERGILGDLRQ
B4: Zinc-finger protein 592 (protein, UniProt Q8BHZ4 1-1262)
chain: MGDMKTPDFDDLLAAFDIPDPTSLDAKEAIQAPSEENESPLKSSGMCIDENVSLSHSGSAPDVPAVSVIVKNTSRQESFEAEKDHIAPSLLHNGFRGSDLPPDSHHCGKFDSTFINGDSARSFTSKLEPSKSEPLPTFNQFSPISSPEPEDPVKDNGFGIKSKHSDSYFPPPPGTVGGPVLEALSKFPVPELHMFDHFCKKEPKPEPLPLESQQEHEQGGQKVVEPHKDLDSSRFFGEALEFNSHPSNSIGEPKKLAPELSACSSVPPRQRLKPAHSKLSSCVAALVALQAKRVANVTKEDQPGHTKDSSGPTKEGSKGSPKMPKSPKSPRSPLEATRKSIKPSDSPRSICSDSSSKGSPSVAASSPPAIPKVRIKTIKTSSGEIKRTVTRILPDPDDPSKSPAESPAGSTITEAPSEAPGDEGTAMPVEEHFSEAGIHSGSPQGDRKGDENMIKTSDSSSPCRISGSRVPKGSALNSQASKKQQSTAPQASTPAASLLPKAVHLANLNLVPHSVAASVTAKSSAQRRSQPQVTQMTVPLVHQVKKAAPLIVEVFNKVLHSSNPVPLYAPNLSPPADSRIHVPASGYCCLECGDAFALEKSLSQHYSRRSVHIEVLCTLCSKTLLFFNKCSLLRHARDHKSKGLVMQCSQLLVKPISADQMFVAAPVNSTAPATPAASSSPKPSPTLDNASSVIPALPLYPDPVRLIRYGTKCPECHKQMRDYMVLATHFQRTTEETEGLTCQVCQMLLPNQCSFCAHQRIHAHKSPYCCPECGVLCRSAYFQTHVKENCLHYARKVGYRCIHCGVIHLTLALLKSHIQERHCQVFHKCAFCPMAFKTASSTMDHSTTQHPTQPHKPSQLIYKCSCEMVFNKKRHIQQHFYQNVSKTQAGVFKCPECPLLFLQKPELMQHVKNTHGVPRNVEELSSLQSSTDTSSNRPGSRAPAEPPATNVAARGSSLTAGRWGRPEAHRRAEARPRMRSTGWTCQECQEWVPDRESYVSHMKKSHGRTLKRYPCRQCEQSFHNPSSLRKHIRNNHDTVKKVYTCGYCTEDSPSFPRPSLLESHISLMHGIRNPDLSQTSKVRHPGGPSPQVNHLKRPVSRMADAPGTSNGATVSSTKRHKSLFQCAKCTFATDSELEFQSHIPQHQVDSSTAQCLLCGLCYTSTSSLNRHLFIVHKVRDQEEGGEDIVEVKVEAPDSEACSGEEVAMETKENGLEECASEPLVTDLGGQQGLALDEDSAQDPQNQPQASQDQNSHALSPQV
B5: Zinc-finger protein 655 (protein, UniProt Q9CZP3 1-541)
chain: MEEVTSQEAAESPRGHFQPLENQSECLSPELRFLQDTDMEQGFSGGFPISKPDGISEREQDLQVFDLESKNREVIRGDCSDGETREENKLLIPKRKISEEVHSYKVRVGKFKQDIAQVPETREVYKSEDRLERLQEILRKFLFLEREFRQITISKKTFSSEKNTEPEKSFSLDSTLDTDQRVLRIQTTDDSKYDMNFNQNPAVGEQEPINLTENFQSTDYKESLMDLSHLNKWESMPTTDRSYKCDTCGKTFHQASALTRHQRIHTREKPYKCKECEKSFSQSSSLSRHKRIHTREKSYKCEASDKSCDAPDKSCSQSSDVLQHKKGHAKAKSYKCGTCERVFSRSVHLTQHQRTHKDMSCKCTVCGSDFCHTSYLVEHQRLHHQEKSYEYDECGLAYVKQQGIRFQEKPYSCNECGKDFRLNSHLIQHQRIHTGEKLHECNECGKSFSQTSCLIQHHKMHRKEKSYEYNNYEESFSHSSDLTLQQEVPIRERVFDCDAWEENFSQRAHLIQHERVHTKEKPYECSELGETFSQVQASFNM
B6: Zinc-finger protein 143 (protein, UniProt O70230 1-638)
chain: MLLAQINRDSQGMTEFPGGGMEAQHVTLCLTEAVTVADGDNLENMEGVSLQAVTLADGSTAYIQHNSKDGRLIDGQVIQLEDGSAAYVQHVPIPKSTGDSLRLEDGQAVQLEDGTTAFIHHTSKDSYDQSSLQAVQLEDGTTAYIHHAVQVPQSDTILAIQADGTVAGLHTGDATIDPDTISALEQYAAKVSIDGSDGVTSTGMIGENEQEKKMQIVLQGHATRVTPKSQQSGEKAFRCKYDGCGKLYTTAHHLKVHERSHTGDRPYQCEHSGCGKAFATGYGLKSHFRTHTGEKPYRCSEDNCTKSFKTSGDLQKHIRTHTGERPFKCPIEGCGRSFTTSNIRKVHIRTHTGERPYYCTEPGCGRAFASATNYKNHVRIHTGEKPYVCTVPGCDKRFTEYSSLYKHHVVHTHSKPYNCNHCGKTYKQISTLAMHKRTAHNDTEPIEEEQEAFFEPPPGQGDDVLKGSQITYVTGVDGEDIVSTQVATVTQSGLSQQVTLISQDGTQHVNISQADMQAIGNTITMVTQDGTPITVPTHDAVISSAGTHSVAMVTAEGTEGQQVAIVAQDLAAFHTASSEMGHQQHSHHLVTTETRPLTLVATSNGTQIAVQLGEQPSLEEAIRIASRIQQGETPGLDD
B7: Ribosomal biogenesis protein LAS1L (protein, UniProt A2BE28 1-776)
chain: MDRVWRAWDGQSFKENQPESPSARGIVVSWLSRAEWEQVTVYLFCDDHKLQQYALNRITVWRSRLGNELPLAVASTADLVRCKLIDAAGTLGTDELRLLYGMALVRFVNLISERKTKCSNLPLKYLAQEVNIPDWIVELRHNLTHKKMPHINECRRGCYFVLNWLQKTYWSRQLEGSLKETWELDEDQLDAEDPEEEEREIIADDVLEEIPEPQDDDKDEELAVEDDANTKGNEEVASHPEPSSRHKELYEKARELLVSYEEEQFKVLEKHRHLLQAIKVWNNLSPRVQCILEELKSISWENRDAVLDAFLDDGFLIPTFEQLAALQIEYEDGQTEVQKGEVTEPNSHKNIDLNEVLVPKPFSQFWQPLLRGLHSQTFTQALLERMFSELSTVGSTGIRPTYILRWTVELIVANTKTGRNARRFSASQWEARKSWRLFNCSATLDWPQVIESCLGSPCWASPQLLQVVFKAMGQVLPDEEQEKLLRVCSIYTQNGENGLAKAIEGSSSSSTGKAPYTLDTLHEDLQPPGTNCESEESIQQKEQGNLKDVKQEEKKENEEEEKEEEEMEEEEEEEEEEKEEEEEEQEQEEHQEEEQEEEEEEENQKVFQDQMEADVEESDDVEEEEEVDDEEEDEDDDYDDDEEEDRMEVGAFSLAQGSSVFENTRTTSRKREALQGSAWQVSSEDVRWGTFPLGRLPGQTEDPAELMLDNYDTMYLLDQPVIEHRLEPQKSKSSTLSLCCGGSNTNSSSSSSSGNMEGLLWNQGQMHGLKAGLQLF

Target: T1, C-terminally 3xFlag-tagged Esrrb (oestrogen-related receptor beta) (mouse) (UniProt Q61539)
T1 sequence: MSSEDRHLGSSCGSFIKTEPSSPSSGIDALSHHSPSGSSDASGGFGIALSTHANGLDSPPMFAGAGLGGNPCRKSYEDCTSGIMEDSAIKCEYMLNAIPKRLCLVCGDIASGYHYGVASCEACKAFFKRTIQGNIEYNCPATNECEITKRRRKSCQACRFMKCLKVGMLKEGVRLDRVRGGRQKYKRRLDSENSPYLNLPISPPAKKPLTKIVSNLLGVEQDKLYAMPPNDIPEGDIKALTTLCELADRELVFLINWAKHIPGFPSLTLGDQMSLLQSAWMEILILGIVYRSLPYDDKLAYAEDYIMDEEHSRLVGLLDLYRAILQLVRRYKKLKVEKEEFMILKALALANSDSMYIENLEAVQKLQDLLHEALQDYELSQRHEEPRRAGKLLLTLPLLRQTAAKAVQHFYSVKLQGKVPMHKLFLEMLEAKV
Experiment: affinity purification with mass spectrometry; anti-FLAG M2 agarose IP of Esrrb-3xFlag from TS cell nuclear extract dialysed to buffer D (20 mM Hepes pH 7.6, 20% glycerol, 100 mM KCl, 1.5 mM MgCl2, 0.2 mM EDTA), 3 h at 4 °C with Benzonase, elution with FLAG-tripeptide, LC-MS/MS; two biological replicates against vector control

| Binder | binding |
| --- | --- |
| B1 | binds |
| B2 | binds |
| B3 | binds |
| B4 | binds |
| B5 | binds |
| B6 | binds |
| B7 | binds |

No constants are given. Whether binding was seen depends on the method and setting. In cells and extracts the contact can be indirect. These calls come from enrichment with a bait or labelling near it, and not all partners need be listed. Where a sequence is shown, tags or fusion partners need not be part of it.
